Some test systems named below: OR10C1 clone 1065; OR10G3 S73G clone 1272; OR10G6 clone 1108; OR10G7 clone 1589; OR10G8 clone 1396; OR10H1 clone 1291; OR10H2 L40Q clone 1461; OR10H3 clone 1525; OR10H5 A224D clone 1294; OR10J1 clone 1711; OR10J3 clone 1458; OR10J5 R233W clone 1410; OR10J5 clone 1037; OR10K1 clone 1024; OR10K2 clone 1040; OR10P1 clone 1254; OR10Q1 clone 1202.
Test in all cases: odorant receptor activation (CRE luciferase / Renilla) (fold of no-odor wells); higher = more activation
Conditions in all cases: 100 µM

Assay [1] deals with OR10G4 A9V/M134V/V195E/R235G/K295Q clone 1119.
Assay [2] relates to OR10G9 A90T/M134V clone 1192.
Assay [3] relates to OR10R2 A191T/E216G/L239F clone 1304.

Where “and” joins values, the source holds several entries; their conditions need not be identical. Equal entries are not always repeated. The list shows a part of the results. Single wells; the ratio to wells without odorant was worked out here, and repeats agree poorly.

For the molecule `CCCC(=O)O` [butyric acid], the odorant receptor activation stood at 1.09 in the assay on OR10C1 clone 1065; 1.03 in the assay with OR10G3 S73G clone 1272; 1.54 in assay [1]; 1.35 with OR10G6 clone 1108; 0.367 in the assay on OR10G7 clone 1589; 0.364 in the assay on OR10G8 clone 1396. For the same molecule, the odorant receptor activation in [2] is 1.09; in the assay with OR10H1 clone 1291 it was 1.13; with OR10H2 L40Q clone 1461 it was 1.26; in the assay on OR10H3 clone 1525, 1; in the assay on OR10H5 A224D clone 1294, 0.871; with OR10J1 clone 1711 it was 0.856. Also, the odorant receptor activation with OR10J3 clone 1458 is 1.43; with OR10J5 R233W clone 1410, 0.21; in the assay on OR10J5 clone 1037, 1.43; in the assay with OR10K1 clone 1024, 1.28; in the assay with OR10K2 clone 1040 it was 1.15; with OR10P1 clone 1254, 0.799. The odorant receptor activation amounted to 0.91 in the assay with OR10Q1 clone 1202 and 0.853 in [3].

Consider `CC(=O)OC1CC2CCC1(C)C2(C)C` (centres undefined) [isobornyl acetate], for which the odorant receptor activation is 1.01 in the assay with OR10C1 clone 1065; 1.16 and 1.08 in the assay with OR10G3 S73G clone 1272; 1.06 in assay [1]; 1.04 in the assay with OR10G6 clone 1108; 5.85 with OR10G7 clone 1589; 0.749 with OR10G8 clone 1396. Also, the odorant receptor activation in assay [2] is 0.79; in the assay on OR10H1 clone 1291 it was 1.23 and 1.14; with OR10H2 L40Q clone 1461, 0.62 and 1.08; with OR10H3 clone 1525, 1.16 and 1.14; in the assay with OR10H5 A224D clone 1294, 1.25 and 1.05; with OR10J1 clone 1711 it was 0.763. Besides, the odorant receptor activation in the assay with OR10J3 clone 1458 is 0.837; in the assay with OR10J5 R233W clone 1410, 0.915; with OR10J5 clone 1037, 1.54; in the assay on OR10K1 clone 1024, 1.7; in the assay with OR10K2 clone 1040, 0.498; in the assay with OR10P1 clone 1254, 1.07 and 2.34. For the same molecule, the odorant receptor activation with OR10Q1 clone 1202 is 1.14; in assay [3], 1.05 and 0.725.

Consider `C=CCc1ccc(O)c(OC)c1` [eugenol], for which the odorant receptor activation was 0.653 and 1.59 in the assay with OR10C1 clone 1065; 1.16 in assay [1]; 2.61 and 1.41 in the assay on OR10G6 clone 1108; 1.39 with OR10G7 clone 1589; 1.3 and 1.27 in the assay on OR10G8 clone 1396; 1.36 and 1.1 in assay [2]. Besides, the odorant receptor activation in the assay with OR10H1 clone 1291 is 1.67 and 1.26; in the assay on OR10H2 L40Q clone 1461 it was 1.36 and 1.33 and 1.38; in the assay on OR10H3 clone 1525 it was 2.19 and 0.811 and 1.31; in the assay with OR10H5 A224D clone 1294, 2.44 and 1.66; with OR10J1 clone 1711, 1.25; in the assay with OR10J3 clone 1458, 1.28. For the same molecule, the odorant receptor activation in the assay with OR10J5 R233W clone 1410 was 1.31 and 1.23; in the assay on OR10J5 clone 1037, 2.2 and 1.23; in the assay on OR10K1 clone 1024, 1.32 and 1.52; with OR10K2 clone 1040, 2.93 and 1.47; in the assay with OR10P1 clone 1254 it was 2.04 and 1.42; in the assay on OR10Q1 clone 1202 it was 1.18 and 1.17. In assay [3], this molecule displayed an odorant receptor activation of 1.2.

For `CC(C)=CCCC(C)=CC=O` [citral], the odorant receptor activation in the assay with OR10C1 clone 1065 stood at 1.2; in the assay with OR10G3 S73G clone 1272, 1.21; in assay [1] it was 1.42; in the assay on OR10G6 clone 1108, 1.2; in the assay on OR10G7 clone 1589 it was 0.206; in the assay on OR10G8 clone 1396 it was 0.344. For the same molecule, the odorant receptor activation turned out to be 1.15 in assay [2]; 1.46 with OR10H1 clone 1291; 1.24 in the assay on OR10H2 L40Q clone 1461; 0.935 with OR10H3 clone 1525; 0.924 in the assay with OR10H5 A224D clone 1294; 0.97 in the assay with OR10J1 clone 1711. Also, the odorant receptor activation with OR10J3 clone 1458 is 1.11; in the assay on OR10J5 R233W clone 1410, 0.225; in the assay with OR10J5 clone 1037, 1.4; with OR10K1 clone 1024, 1.66; in the assay with OR10K2 clone 1040 it was 1.17; in the assay with OR10P1 clone 1254 it was 0.92. The odorant receptor activation came out at 1.29 in the assay on OR10Q1 clone 1202 and 1.17 in [3].

As to `C=C(C)C1CC=C(C)C(=O)C1` (centres undefined) [r-carvone], the odorant receptor activation is 0.864 with OR10C1 clone 1065; 0.626 in the assay on OR10G3 S73G clone 1272; 1.01 in [1]; 0.879 in the assay on OR10G6 clone 1108; 0.866 in the assay with OR10G7 clone 1589; 1.29 in the assay on OR10G8 clone 1396. The odorant receptor activation in assay [2] was 0.806; in the assay with OR10H1 clone 1291 it was 1; in the assay on OR10H2 L40Q clone 1461 it was 0.933; in the assay with OR10H3 clone 1525, 1.02; with OR10H5 A224D clone 1294, 0.883; in the assay with OR10J1 clone 1711, 0.791. The odorant receptor activation with OR10J3 clone 1458 is 1.14; in the assay with OR10J5 R233W clone 1410 it was 1.18; with OR10J5 clone 1037, 0.817; in the assay on OR10K1 clone 1024, 1.01; in the assay on OR10K2 clone 1040, 0.847; with OR10P1 clone 1254, 0.802. The odorant receptor activation with OR10Q1 clone 1202 was found to be 0.882; in [3], 0.719.

On to `CCCCCCCOC(C)=O` [heptyl acetate], for which the odorant receptor activation with OR10C1 clone 1065 was 1.84; in the assay with OR10G3 S73G clone 1272, 0.877 and 1.33; in assay [1], 1.29; with OR10G6 clone 1108, 1.03; in the assay with OR10G7 clone 1589, 1.23; with OR10G8 clone 1396, 0.931. Moreover, the odorant receptor activation was 0.58 in assay [2]; 0.963 and 0.744 with OR10H1 clone 1291; 0.69 and 1.27 with OR10H2 L40Q clone 1461; 0.635 and 1.24 in the assay on OR10H3 clone 1525; 0.947 and 0.966 with OR10H5 A224D clone 1294; 0.569 with OR10J1 clone 1711. Besides, the odorant receptor activation in the assay on OR10J3 clone 1458 was 0.804; in the assay with OR10J5 R233W clone 1410, 0.977; in the assay with OR10J5 clone 1037, 1.02; with OR10K1 clone 1024, 0.873; in the assay on OR10K2 clone 1040, 0.923; in the assay with OR10P1 clone 1254 it was 1.04 and 2.42. The odorant receptor activation was 1.16 in the assay on OR10Q1 clone 1202; 1.03 and 0.547 in assay [3].

In the case of `COc1cc(C)ccc1O` [2-methoxy-4-methylphenol], the odorant receptor activation came to 2.31 in the assay with OR10C1 clone 1065; 2.08 with OR10G3 S73G clone 1272; 3.71 in assay [1]; 18.9 in the assay with OR10G6 clone 1108; 10.7 with OR10G7 clone 1589; 1.19 with OR10G8 clone 1396. In addition, the odorant receptor activation came out at 1.47 in assay [2]; 1.22 in the assay with OR10H1 clone 1291; 0.96 in the assay with OR10H2 L40Q clone 1461; 0.821 with OR10H3 clone 1525; 0.91 in the assay with OR10H5 A224D clone 1294; 0.711 in the assay with OR10J1 clone 1711. The odorant receptor activation in the assay on OR10J3 clone 1458 was 0.921; with OR10J5 R233W clone 1410, 1.29; with OR10J5 clone 1037, 1.75; in the assay on OR10K1 clone 1024, 3.43; with OR10K2 clone 1040 it was 1.54; in the assay on OR10P1 clone 1254 it was 1.14. Moreover, the odorant receptor activation with OR10Q1 clone 1202 came to 1.18; in [3], 0.969.

(Values after the odorant receptor screen of Mainland et al. (2015).)
